The target of experiment [1] is IAP1-Nluc (IAP1 fused to the N-terminal domain of luciferase) (Arabidopsis thaliana). Kind of experiment: split reporter.
The target of experiment [2] is GFP-IAP1 (Arabidopsis thaliana). Nature of the experiment: FRET or BRET. A general note: In BRET a luciferase serves as donor, and the signal depends on an acceptor being close.

No constants are given. Whether binding was seen depends on the method and setting. In cells and extracts the contact can be indirect. For some assays here: Sequences can lack the tags named with a protein.

B1: Cluc-IAN9 (N-terminal fusion of IAN9 to the C-terminal domain of luciferase) (protein, UniProt F4HT21 1-342)
chain: MSLLDMGGDMMEDDWEFASSSNPKRTLVLVGRTGNGKSATGNSILGRKAFRSRARTVGVTSTCESQRVVQEDGDIINVVDTPGLFDLSTAADFIGKEIVRCISLAEDGIHAILLVFSVRRLAEEEQTVLSFLQALFGSKIADYMIVVFTGGDELEENEETLEEYLADYCPEFLKEILGICDNRLVLFNNKTTDKVKKAEQVQKLLSLVESVVKQNNGKPYSDELFHELQEEAIKLRDQKKEVELLQGYSNNEIDEFKKQIDMSYDRQLSRITEMVETKLRDTAKRLEQQLGEEQAARLEAEKRANEVQKRSSDEIKKLRENLERAEKETKELQKKLGKCINL
For B1, in experiment [1], the binding result is recorded as “no binding”.

B2: RFP-IAN9 (protein, UniProt F4HT21 1-342)
chain: MSLLDMGGDMMEDDWEFASSSNPKRTLVLVGRTGNGKSATGNSILGRKAFRSRARTVGVTSTCESQRVVQEDGDIINVVDTPGLFDLSTAADFIGKEIVRCISLAEDGIHAILLVFSVRRLAEEEQTVLSFLQALFGSKIADYMIVVFTGGDELEENEETLEEYLADYCPEFLKEILGICDNRLVLFNNKTTDKVKKAEQVQKLLSLVESVVKQNNGKPYSDELFHELQEEAIKLRDQKKEVELLQGYSNNEIDEFKKQIDMSYDRQLSRITEMVETKLRDTAKRLEQQLGEEQAARLEAEKRANEVQKRSSDEIKKLRENLERAEKETKELQKKLGKCINL
As for B2, in experiment [2], the binding entry is “no binding”.

(Values after article doi:10.1101/277269.)
